# From PubChem BioAssay AID1347076 (National Center for Advancing Translational Sciences (NCATS), 2019)
# The whole screen tested about 400,000 compounds, of which about 13,000 (3.2%) were called active. The inconclusive results got no clear call from the source; some entries with a clear call stand among them for comparison. The call rests on the fitted dose curve; in most records, active means well fitted cell-killing curve with a large enough effect; inconclusive means small, poorly fitted or top-dose-only effect, or effect the other way; inactive means flat fitted curve, though single readings scatter. A potency beside an inconclusive call is a rough fit, not a confirmed value.
# Assay: qHTS assay for MDR1-selective chemotherapeutics: Primary screen using the drug-selected MDR subline cells KB-V1; further: nearly all actives have a fitted effect of over 60% in size
# Settings: KB-V1 MDR cells viability, CellTiter-Glo, 72 h; activity change, negative = cytotoxicity: at 46.1 µM (top of the series)
# In short: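 Drug-selected KB-V1 cells, grown in DMEM lacking phenol red with 10% FBS, receive compound titrations; after three days at 37 degrees C, surviving cell ATP is quantified by CellTiter-Glo luminescence and responses normalized and curve-fitted.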
# On the % scale 0 is the no-effect control and ±100 the full control effect; potency means the concentration at half of the fitted maximal effect.
SMILES,Potency,"activity change, negative = cytotoxicity"
O=C(Nc1ccc(N2CCN(Cc3ccccc3)CC2)cc1)c1cccnc1,"inconclusive: 0.461 µM [cytotoxic, full curve]",–
CCOc1ccc(C(C)NC(=S)NCc2ccc(F)cc2)cc1 (centres undefined),"inconclusive: 20.6 µM [cytotoxic, single point]",–
OC(CC#CCN1CCCC1)(c1ccccc1)c1ccccc1,–,inactive: 5.18%
Cc1ccc(C)c(Nc2cc(C)nc3ccccc23)c1,"inconclusive: 8.2 µM [cytotoxic, partial curve, poor fit]",–
CCNC(=S)NNC(=O)c1nn(C)c(C)c1Cl,"inconclusive: 6.51 µM [cytotoxic, full curve]",–
CCOC(=O)N1CCN(S(=O)(=O)N2CCCC(C(=O)NCCCN3CC(C)CC(C)C3)C2)CC1 (centres undefined),"inconclusive: 29.1 µM [rising, single point]",–
O=C(NCc1ccccc1F)C(=O)NCC1OCCCN1S(=O)(=O)c1cccs1 (centres undefined),"inconclusive: 29.1 µM [cytotoxic, single point]",–
Cc1cccc(OCc2nnc(SCC(=O)Nc3ccc(C)cc3C)o2)c1,"inconclusive: 16.4 µM [rising, single point]",–
Cc1ccc(-n2cnc3cc(NCc4cccs4)ccc32)cc1,"inconclusive: 23.1 µM [cytotoxic, partial curve]",–
O=C(NCC12CC3CC(CC(C3)C1)C2)c1cc2n(n1)C(C(F)(F)F)CC(c1ccco1)N2 (centres undefined),–,inactive: -20.4%
CSc1ncccc1C(=O)Nc1nccs1,–,inactive: -1.22%
O=C(NC1=CC(=O)c2ccccc2C1=O)c1ccccc1,"inconclusive: 29.1 µM [cytotoxic, single point]",–
CNc1nc(SCc2ccccc2Cl)nc2c1CCCC2,"inconclusive: 29.1 µM [cytotoxic, single point]",–
O=C(c1ccc2c3n(nc2c1)-c1ccc(Cl)cc1CO3)N1CCOCC1,"inconclusive: 20.6 µM [cytotoxic, single point]",–
Cc1cccnc1NC(=O)CN1C(=O)c2ccccc2S1(=O)=O,–,inactive: 12.6%
Cc1cccc(C)c1NC(=O)c1cc(S(=O)(=O)N2CCOCC2)cn1C,–,inconclusive: 30.9%
COc1ccc(NC(=O)NC2(C(=O)N3CCCCCC3)CCCCC2)cc1,"inconclusive: 29.1 µM [cytotoxic, single point]",–
Cc1noc(C)c1C(=O)Nc1sc(C)c(-c2ccccc2)c1C#N,active: 4.11 µM,–
CC(C)CC(=O)OCC(=O)Nc1ccccc1Sc1ccccc1,"inconclusive: 18.4 µM [rising, single point]",–
Cc1noc(C)c1C(=O)Nc1nc(-c2ccc(F)cc2)cs1,"inconclusive: 25.9 µM [cytotoxic, single point]",–
Cc1ccc(NC(=O)c2ccc3c(=O)n4c(nc3c2)CCC4)cc1S(=O)(=O)N(C)C,"inconclusive: 3.26 µM [cytotoxic, partial curve, poor fit]",–
CCOC(=O)C1(Cc2cccc(OC)c2)CCN(Cc2ccc(OC)c(O)c2)CC1,–,inactive: 22.1%
Cc1nnc(N2CCC(C(=O)NC(C)C)CC2)c2nn(-c3ccc(Cl)cc3)c(C)c12,–,inactive: 19.3%
O=C(Nc1ccc(S(=O)(=O)Nc2ncccn2)cc1)c1ccc(Br)cc1,–,inactive: 4.97%
CCCSCCCNC(=O)C1CCN(C(=O)c2cc3sccc3n2C)CC1,–,inactive: -7.07%

# Among those listed so far, these have an aryl methoxy group.
SMILES,Potency,"activity change, negative = cytotoxicity"
COc1ccc(NC(=O)NC2(C(=O)N3CCCCCC3)CCCCC2)cc1,"inconclusive: 29.1 µM [cytotoxic, single point]",–
CCOC(=O)C1(Cc2cccc(OC)c2)CCN(Cc2ccc(OC)c(O)c2)CC1,–,inactive: 22.1%

# The results go on:

SMILES,Potency,"activity change, negative = cytotoxicity"
O=NN(CCc1ccncc1)c1ccc(OCc2ccccc2)cc1,active: 3.26 µM,–
c1ccc(CC[n+]2ccncc2)cc1,–,inactive: 0.926%
COc1ccccc1N1CCN(S(=O)(=O)c2ccc3c(c2)oc(=O)n3C)CC1,"inconclusive: 16.4 µM [cytotoxic, partial curve]",–
CCOC1=C2CN(S(=O)(=O)c3ccc(C)cc3)C(c3ccc(C)cc3)CC2N(S(=O)(=O)c2ccc(C)cc2)C(c2ccccc2)C1 (centres undefined),"inconclusive: 4.11 µM [cytotoxic, partial curve]",–
COc1cccc(/C=N/NC(=O)c2c(C)nc3ccc(Br)cn23)c1,–,inactive: 8.11%
Cc1cccc(-c2cc3nc4c(c(N5CCC6(CC5)OCCO6)n3n2)CCCC4)c1,"inconclusive: 32.6 µM [cytotoxic, single point]",–
C[C@@H]1CN([C@H](C)CO)C(=O)CCCn2cc(nn2)CO[C@H]1CN(C)S(=O)(=O)c1ccc(C#N)cc1,–,inactive: 11.8%
CC(=O)c1cccc(NC(=O)CCc2c(C)nc3c(-c4ccc(F)cc4)c(C)nn3c2C)c1,–,inactive: 16.5%
COC(=O)[C@@H](NC(=O)CCc1nnc(-c2ccsc2)o1)C(C)C,–,inconclusive: -2.74%
CC1(C)Cc2c(c(N3CCOCC3)nc3sc4c(=O)[nH]cnc4c23)CS1,"inconclusive: 11.6 µM [cytotoxic, partial curve]",–
O=S(=O)(/C=C/c1ccccc1)NC1CCCCCC1,"inconclusive: 20.6 µM [cytotoxic, single point]",–
O=C(Nc1cn(-c2ccccc2)nc1-c1cccs1)c1ccco1,"inconclusive: 20.6 µM [cytotoxic, single point]",–
COc1cc(NC(=O)c2ccccc2F)c(OC)cc1NC(=O)CN1CCOCC1,"inconclusive: 6.51 µM [cytotoxic, partial curve]",–
CC1(C)COC(Cc2ccccc2)=N1,–,inactive: 0.592%
O=C(NNC(=O)c1ccc[nH]1)c1cccc(C(F)(F)F)c1,"inconclusive: 29.1 µM [rising, single point]",–
COCCNS(=O)(=O)c1cc(OC)ccc1OC,–,inactive: 0.772%
Cc1ccc(C2NC(=S)N3C(c4ccc(C)cc4)NC(=S)N23)cc1 (centres undefined),–,inactive: 1.49%
CCc1ccc(CN(C)C(=O)c2cc(COc3cncc(Cl)c3)on2)cc1,"inconclusive: 23.1 µM [cytotoxic, single point]",–
CN1/C(=C\C(=O)CSc2nnc(N)s2)C(C)(C)c2ccccc21,–,inactive: 3.56%
Cc1cc(C)cc(N(CC(=O)NC2CCCC2)C(=O)c2csnn2)c1,"inconclusive: 5.17 µM [cytotoxic, full curve, poor fit]",–
COC(=O)c1ccc2nc(-c3ccc(F)cc3)c(Cc3ccc(OC)cc3C)n2c1,–,inactive: -2.1%
Cc1ccc(Nc2nc(C)c3c(n2)CC(C)CC3=O)c(C)c1 (centres undefined),"inconclusive: 16.4 µM [cytotoxic, single point]",–
c1cc(SC2CCCCC2)cc(-c2nc3cnccn3c2NC2CCCCC2)c1,"inconclusive: 29.1 µM [cytotoxic, single point]",–
COC(=O)c1c(C)[nH]c(C(=O)CN2C(=O)C3CC=CCC3C2=O)c1C (centres undefined),active: 20.6 µM,–
COc1cccc(CN(C)C(=O)C2CCC(=O)N(Cc3cccc(F)c3)C2)c1 (centres undefined),"inconclusive: 23.1 µM [cytotoxic, single point]",–

SMILES,Potency,"activity change, negative = cytotoxicity"
CC(C)c1cc(-c2cc(C(=O)NCc3ccccc3)on2)nc(NC2CCCC2)n1,"inconclusive: 29.1 µM [cytotoxic, single point]",–
O=C(O)c1cccc(Nc2c([N+](=O)[O-])c(=O)oc3ccccc23)c1,–,inconclusive: 31.6%
CC1CCC2(CC1)NC(=O)N(CC(=O)N1CCN(c3ccccc3)CC1)C2=O (centres undefined),"inconclusive: 23.1 µM [cytotoxic, single point]",–
Cc1ccc(CCNC(=O)CCn2c(=O)c3cccn3c3ccc(F)cc32)cc1,–,inconclusive: -4.06%
CCN1C(=NCc2ccccc2)N[C@@H](c2ccccc2)[C@H](C(=O)OC)[C@H]1C,–,inactive: -11.9%
Cc1cc2cc3c(N)[nH]nc3nc2cc1C,active: 7.31 µM,–
COc1ccc(OC)c(NC(=O)Cn2cc(S(=O)(=O)c3ccccc3)c(=O)c3cc(C)ccc32)c1,"inconclusive: 18.4 µM [rising, single point]",–
COc1cccc(CNC(=O)C2CCN(S(=O)(=O)c3ccc(F)cc3)CC2)c1,active: 23.1 µM,–
CN1C(=O)C2C(c3ccc(N(C)C)cc3)NN(Cc3ccccc3)C2C1=O (centres undefined),"inconclusive: 14.6 µM [cytotoxic, partial curve, poor fit]",–
CCOc1ccc(S(=O)(=O)NCC(c2ccc3c(c2)OCO3)N2CCN(C)CC2)cc1 (centres undefined),–,inactive: -4.41%
CCOC(=O)CNC(=O)CN1CCCN(S(=O)(=O)c2ccc(Br)s2)CC1,–,inactive: 7.08%
COc1cc(NS(=O)(=O)c2ccc(-n3cccn3)cc2)cc(OC)c1,"inconclusive: 20.6 µM [cytotoxic, partial curve]",–
CS(=O)(=O)N1CCN(c2ccc(C(=O)NC34CC5CC(CC(C5)C3)C4)cc2[N+](=O)[O-])CC1,–,inactive: -6.74%
Cc1cccn2c(=O)nc(SCC(=O)Nc3ccc4c(c3)OCO4)nc12,"inconclusive: 29.1 µM [rising, single point]",–
COc1ccc(NC(=O)c2cccc3ccccc23)cc1,"inconclusive: 18.4 µM [cytotoxic, single point]",–
COc1ccc(CCN(C)C(=O)c2oc3ccccc3c2C)cc1OC,–,inactive: -14.6%
CCOc1ccc(CNC(=O)CCn2nc(C)c3c(C)n(-c4ccccc4)nc3c2=O)cc1,–,inactive: -21.5%
COc1ccc(C(=O)Nc2ccc(-c3cc4ccccc4oc3=O)c(C)c2)cc1Br,"inconclusive: 0.651 µM [cytotoxic, partial curve, poor fit]",–
CCOC(=O)C1=C(O)CSC1=Nc1ccc(C)cc1,–,inactive: -3.78%
Cc1ccc(C)c(N2CCN(C(=O)CCCn3ncn4c(cc5occc54)c3=O)CC2)c1,"inconclusive: 29.1 µM [cytotoxic, single point]",–
COc1ccc(-c2csc(NC(=O)CSCC(=O)Nc3cc(C)on3)n2)cc1,"inconclusive: 18.4 µM [cytotoxic, single point]",–
COc1cc(CNc2ncnc3c2ncn3[C@H]2CN(Cc3ccc(F)cc3)C[C@@H](CO)O2)cc(OC)c1OC,–,inactive: 4.81%
CCN(CC)CCOC(=O)C12CC3CC(CC(C3)C1)C2,–,inactive: -1.97%
Cc1ccc(C)c(NC(=O)C2CCCN(c3cnccn3)C2)c1 (centres undefined),–,inactive: 3.14%

# Among those listed so far, these contain two or more sulfur atoms.
SMILES,Potency,"activity change, negative = cytotoxicity"
O=C(NCc1ccccc1F)C(=O)NCC1OCCCN1S(=O)(=O)c1cccs1 (centres undefined),"inconclusive: 29.1 µM [cytotoxic, single point]",–
CSc1ncccc1C(=O)Nc1nccs1,–,inactive: -1.22%
CCCSCCCNC(=O)C1CCN(C(=O)c2cc3sccc3n2C)CC1,–,inactive: -7.07%
CCOC1=C2CN(S(=O)(=O)c3ccc(C)cc3)C(c3ccc(C)cc3)CC2N(S(=O)(=O)c2ccc(C)cc2)C(c2ccccc2)C1 (centres undefined),"inconclusive: 4.11 µM [cytotoxic, partial curve]",–
CC1(C)Cc2c(c(N3CCOCC3)nc3sc4c(=O)[nH]cnc4c23)CS1,"inconclusive: 11.6 µM [cytotoxic, partial curve]",–
Cc1ccc(C2NC(=S)N3C(c4ccc(C)cc4)NC(=S)N23)cc1 (centres undefined),–,inactive: 1.49%
CN1/C(=C\C(=O)CSc2nnc(N)s2)C(C)(C)c2ccccc21,–,inactive: 3.56%
CCOC(=O)CNC(=O)CN1CCCN(S(=O)(=O)c2ccc(Br)s2)CC1,–,inactive: 7.08%
COc1ccc(-c2csc(NC(=O)CSCC(=O)Nc3cc(C)on3)n2)cc1,"inconclusive: 18.4 µM [cytotoxic, single point]",–
